In patent US7067528B2, “1, 2-dihydro-2-oxo-1, 8-naphthyridine derivative” (Sumitomo Pharmaceuticals Co., Ltd., priority 2001, dated 2006):
Structures can show the parent of a compound that is named as a salt. At least one compound was matched to its structure with a doubt left.

Experiment: Stability Test: storage at 60° C., 75% R.H., residual amount of the compound by HPLC
Type: physicochemical
Protocol: The crystals of N-[1-butyl-4-[3-[3-(hydroxy)propoxy]-phenyl]-1,2-dihydro-2-oxo-1,8-naphthyridin-3-yl]-N′-(2,6-diisopropyl-4-aminophenyl)urea hydrochloride monohydrate obtained in Example 1 and amorphous N-[1-butyl-4-[3-[3-(hydroxy)propoxy]phenyl]-1,2-dihydro-2-oxo-1,8-naphthyridin-3-yl]-N′-(2,6-diisopropyl-4-aminophenyl)urea hydrochloride were stored at a temperature of 60° C. under a relative humidity (R.H.) of 75% for 4 weeks. Then, the residual amount of the compound therein was quantitatively analyzed using High Performance Liquid Chromatography (HPLC).

SMILES: CCCCn1c(=O)c(NC(=O)Nc2c(C(C)C)cc(N)cc2C(C)C)c(-c2cccc(OCCCO)c2)c2cccnc21 [Example 1, N-[1-butyl-4-[3-[3-(hydroxy)propoxy]phenyl]-1,2-dihydro-2-oxo-1,8-naphthyridin-3-yl]-N′-(2,6-diisopropyl-4-amino-phenyl)urea hydrochloride monohydrate]
- HPLC Area Percentage (%) (Initial value, before storage at 60° C. / 75% R.H.): 99.7%
- HPLC Area Percentage (%) (storage period 2 weeks at 60° C., relative humidity 75%): 99.6%
- HPLC Area Percentage (%) (storage period 4 weeks at 60° C., relative humidity 75%): 99.5%
